The other results are listed elsewhere or left out.
compound: Cc1nc(Nc2ncc(C(=O)Nc3c(C)cccc3Cl)s2)cc(N2CCN(CCO)CC2)n1 [dasatinib]; experiment: log2 fold change, soluble protein after heating vs DMSO (PISA); higher = thermal stabilisation; K562 lysate, 10 uM; active = over 0.2 and 3.5 SD of the protein, either way, in both replicates (recomputed)
Summary of the method: (§1)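 Log-two fold change in thermal stability relative to solvent controls is reported from duplicates. For each sample, crude K562 extract from dounce-homogenised pellets in PBS pH 7.4 with 1 mM MgCl2, at 1 mg/mL protein, was treated with 10 μM compound for 30 min. Aliquots heated for 3 min across 48°C-58°C were pooled, brought to 0.5% NP-40 at 4°C and cleared at 21,000xg for 90 min. The supernatant was quantified by TMTpro 16plex LC-MS/MS with channel sums equalised.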

By UniProt entry, the sequences of proteins in these tests, tags left out. Where a name states a change or a piece, a line headed by the entry shows the natural chain unless it says otherwise.
UniProt Q9Y6I3: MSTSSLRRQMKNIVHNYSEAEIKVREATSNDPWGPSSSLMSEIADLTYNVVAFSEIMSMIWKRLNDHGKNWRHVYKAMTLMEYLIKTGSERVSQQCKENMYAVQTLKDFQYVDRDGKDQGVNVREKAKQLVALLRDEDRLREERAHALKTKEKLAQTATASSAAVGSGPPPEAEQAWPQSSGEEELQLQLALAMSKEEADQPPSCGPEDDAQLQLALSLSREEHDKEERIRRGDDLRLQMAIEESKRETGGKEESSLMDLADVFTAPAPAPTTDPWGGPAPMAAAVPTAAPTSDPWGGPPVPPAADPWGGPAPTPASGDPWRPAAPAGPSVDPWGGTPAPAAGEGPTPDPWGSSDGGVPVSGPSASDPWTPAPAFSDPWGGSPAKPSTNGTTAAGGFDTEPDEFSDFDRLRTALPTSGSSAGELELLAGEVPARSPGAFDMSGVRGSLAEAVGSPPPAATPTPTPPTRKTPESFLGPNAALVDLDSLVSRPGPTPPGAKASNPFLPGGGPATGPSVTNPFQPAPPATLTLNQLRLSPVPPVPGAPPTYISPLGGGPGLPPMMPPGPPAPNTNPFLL
UniProt Q9P0I2: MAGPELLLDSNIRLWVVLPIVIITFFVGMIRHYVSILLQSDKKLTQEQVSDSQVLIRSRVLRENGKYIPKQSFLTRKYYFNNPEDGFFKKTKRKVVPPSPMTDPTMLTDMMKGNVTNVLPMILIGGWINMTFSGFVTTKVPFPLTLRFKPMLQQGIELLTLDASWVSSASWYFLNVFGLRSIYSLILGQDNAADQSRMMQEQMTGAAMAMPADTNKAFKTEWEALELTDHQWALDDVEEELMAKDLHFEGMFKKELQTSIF
UniProt Q96EB1: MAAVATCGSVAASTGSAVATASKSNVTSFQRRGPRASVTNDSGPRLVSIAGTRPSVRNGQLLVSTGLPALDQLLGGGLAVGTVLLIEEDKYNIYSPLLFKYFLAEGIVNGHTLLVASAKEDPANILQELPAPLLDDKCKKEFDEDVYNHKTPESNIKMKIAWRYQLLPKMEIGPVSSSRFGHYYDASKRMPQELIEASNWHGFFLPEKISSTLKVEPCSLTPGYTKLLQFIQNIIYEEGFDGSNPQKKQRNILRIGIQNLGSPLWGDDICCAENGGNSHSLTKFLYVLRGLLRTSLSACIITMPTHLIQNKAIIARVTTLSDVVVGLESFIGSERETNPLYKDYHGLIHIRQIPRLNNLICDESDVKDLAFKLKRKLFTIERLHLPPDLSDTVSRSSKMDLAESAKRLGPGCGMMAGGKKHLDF
UniProt Q96RQ1: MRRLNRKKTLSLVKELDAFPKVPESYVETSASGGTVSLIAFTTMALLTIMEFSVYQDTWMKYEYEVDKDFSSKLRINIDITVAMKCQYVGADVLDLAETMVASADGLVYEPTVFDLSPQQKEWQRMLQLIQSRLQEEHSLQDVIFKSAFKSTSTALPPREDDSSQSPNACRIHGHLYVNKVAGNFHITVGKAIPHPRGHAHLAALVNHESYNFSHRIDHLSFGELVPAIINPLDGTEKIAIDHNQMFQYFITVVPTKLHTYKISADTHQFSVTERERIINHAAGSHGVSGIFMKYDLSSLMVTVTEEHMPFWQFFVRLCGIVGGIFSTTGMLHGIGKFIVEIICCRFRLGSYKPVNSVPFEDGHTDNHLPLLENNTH
UniProt Q96RT1: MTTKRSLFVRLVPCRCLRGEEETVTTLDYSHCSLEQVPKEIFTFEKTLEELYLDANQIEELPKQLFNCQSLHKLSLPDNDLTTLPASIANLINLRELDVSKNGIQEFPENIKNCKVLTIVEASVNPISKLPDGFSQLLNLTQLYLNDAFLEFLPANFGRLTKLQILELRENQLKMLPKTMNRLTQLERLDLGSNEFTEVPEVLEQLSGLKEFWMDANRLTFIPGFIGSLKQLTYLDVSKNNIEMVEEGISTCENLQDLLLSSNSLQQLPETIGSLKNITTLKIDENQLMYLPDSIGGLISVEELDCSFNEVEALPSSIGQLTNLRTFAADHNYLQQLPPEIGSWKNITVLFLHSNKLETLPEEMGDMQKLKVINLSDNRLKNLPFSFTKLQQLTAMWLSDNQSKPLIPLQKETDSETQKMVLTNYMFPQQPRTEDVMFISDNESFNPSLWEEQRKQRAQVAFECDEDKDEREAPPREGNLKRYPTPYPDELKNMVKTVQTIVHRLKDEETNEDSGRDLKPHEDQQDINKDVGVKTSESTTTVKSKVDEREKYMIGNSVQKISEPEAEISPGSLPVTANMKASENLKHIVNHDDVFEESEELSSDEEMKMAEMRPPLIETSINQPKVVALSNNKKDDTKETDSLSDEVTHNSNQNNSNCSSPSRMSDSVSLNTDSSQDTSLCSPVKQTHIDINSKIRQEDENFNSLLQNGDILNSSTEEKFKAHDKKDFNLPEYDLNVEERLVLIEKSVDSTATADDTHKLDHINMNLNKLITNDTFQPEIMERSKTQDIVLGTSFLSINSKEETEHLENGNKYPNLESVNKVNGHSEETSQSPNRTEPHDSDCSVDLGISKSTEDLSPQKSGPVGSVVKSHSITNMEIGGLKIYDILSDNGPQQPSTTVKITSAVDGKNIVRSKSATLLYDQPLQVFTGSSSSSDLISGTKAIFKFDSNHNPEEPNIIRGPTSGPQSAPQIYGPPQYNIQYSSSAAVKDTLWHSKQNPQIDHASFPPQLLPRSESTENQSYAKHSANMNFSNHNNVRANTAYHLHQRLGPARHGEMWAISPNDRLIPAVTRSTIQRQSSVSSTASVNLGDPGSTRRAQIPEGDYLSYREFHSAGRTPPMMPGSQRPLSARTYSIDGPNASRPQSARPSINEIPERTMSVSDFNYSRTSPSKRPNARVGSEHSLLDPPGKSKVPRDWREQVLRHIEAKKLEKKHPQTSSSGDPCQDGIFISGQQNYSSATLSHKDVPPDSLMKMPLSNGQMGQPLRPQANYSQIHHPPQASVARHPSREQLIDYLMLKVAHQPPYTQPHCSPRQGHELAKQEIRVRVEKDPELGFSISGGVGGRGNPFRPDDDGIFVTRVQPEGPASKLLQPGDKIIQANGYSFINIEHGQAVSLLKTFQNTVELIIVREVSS
UniProt O95163: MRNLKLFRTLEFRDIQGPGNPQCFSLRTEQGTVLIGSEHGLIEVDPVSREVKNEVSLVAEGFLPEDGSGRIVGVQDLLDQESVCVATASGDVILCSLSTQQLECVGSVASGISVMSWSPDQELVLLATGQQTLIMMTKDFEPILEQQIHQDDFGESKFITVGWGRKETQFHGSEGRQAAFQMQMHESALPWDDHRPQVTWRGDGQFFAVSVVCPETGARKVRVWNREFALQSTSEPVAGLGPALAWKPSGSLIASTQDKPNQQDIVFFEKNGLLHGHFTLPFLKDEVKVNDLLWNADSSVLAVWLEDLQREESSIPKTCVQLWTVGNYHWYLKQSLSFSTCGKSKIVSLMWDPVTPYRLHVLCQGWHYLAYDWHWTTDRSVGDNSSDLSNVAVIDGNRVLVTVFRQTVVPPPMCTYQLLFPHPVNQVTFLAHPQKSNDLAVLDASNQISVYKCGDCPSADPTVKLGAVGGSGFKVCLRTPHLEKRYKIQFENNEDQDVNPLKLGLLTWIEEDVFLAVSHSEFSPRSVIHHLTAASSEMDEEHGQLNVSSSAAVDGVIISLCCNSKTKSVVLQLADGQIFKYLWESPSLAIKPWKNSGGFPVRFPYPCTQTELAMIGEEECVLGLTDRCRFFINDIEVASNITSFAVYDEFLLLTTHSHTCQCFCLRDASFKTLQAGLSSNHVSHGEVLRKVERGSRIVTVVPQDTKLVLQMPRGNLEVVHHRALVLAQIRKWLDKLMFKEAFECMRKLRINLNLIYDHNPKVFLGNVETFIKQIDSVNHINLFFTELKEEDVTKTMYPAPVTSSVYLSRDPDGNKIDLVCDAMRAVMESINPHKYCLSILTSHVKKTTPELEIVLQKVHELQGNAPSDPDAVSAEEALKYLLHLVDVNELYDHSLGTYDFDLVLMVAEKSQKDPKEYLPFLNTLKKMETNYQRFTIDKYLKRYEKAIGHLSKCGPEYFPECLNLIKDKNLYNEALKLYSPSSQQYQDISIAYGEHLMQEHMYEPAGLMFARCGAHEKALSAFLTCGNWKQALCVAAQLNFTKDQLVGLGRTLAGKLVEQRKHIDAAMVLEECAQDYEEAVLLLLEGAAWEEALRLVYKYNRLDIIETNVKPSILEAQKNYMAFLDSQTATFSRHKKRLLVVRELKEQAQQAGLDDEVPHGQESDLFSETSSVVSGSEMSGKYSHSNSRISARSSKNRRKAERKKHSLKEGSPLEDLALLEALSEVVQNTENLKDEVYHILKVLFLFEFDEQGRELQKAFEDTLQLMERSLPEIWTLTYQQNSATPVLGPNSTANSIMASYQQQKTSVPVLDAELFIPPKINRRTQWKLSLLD
UniProt Q8TE02: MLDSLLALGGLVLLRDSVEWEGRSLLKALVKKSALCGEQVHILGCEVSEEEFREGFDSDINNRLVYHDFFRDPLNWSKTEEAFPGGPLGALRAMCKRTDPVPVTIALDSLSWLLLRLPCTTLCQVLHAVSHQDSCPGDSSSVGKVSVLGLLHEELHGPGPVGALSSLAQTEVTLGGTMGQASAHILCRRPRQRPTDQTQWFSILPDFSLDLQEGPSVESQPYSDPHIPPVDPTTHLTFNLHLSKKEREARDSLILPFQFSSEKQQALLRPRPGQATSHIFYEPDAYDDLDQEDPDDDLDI
UniProt P54852: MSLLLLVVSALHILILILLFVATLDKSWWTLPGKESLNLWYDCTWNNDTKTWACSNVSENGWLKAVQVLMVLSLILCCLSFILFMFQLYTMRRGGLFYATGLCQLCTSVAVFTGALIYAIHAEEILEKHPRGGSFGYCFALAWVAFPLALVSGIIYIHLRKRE
UniProt P34913, whole entry, looked up: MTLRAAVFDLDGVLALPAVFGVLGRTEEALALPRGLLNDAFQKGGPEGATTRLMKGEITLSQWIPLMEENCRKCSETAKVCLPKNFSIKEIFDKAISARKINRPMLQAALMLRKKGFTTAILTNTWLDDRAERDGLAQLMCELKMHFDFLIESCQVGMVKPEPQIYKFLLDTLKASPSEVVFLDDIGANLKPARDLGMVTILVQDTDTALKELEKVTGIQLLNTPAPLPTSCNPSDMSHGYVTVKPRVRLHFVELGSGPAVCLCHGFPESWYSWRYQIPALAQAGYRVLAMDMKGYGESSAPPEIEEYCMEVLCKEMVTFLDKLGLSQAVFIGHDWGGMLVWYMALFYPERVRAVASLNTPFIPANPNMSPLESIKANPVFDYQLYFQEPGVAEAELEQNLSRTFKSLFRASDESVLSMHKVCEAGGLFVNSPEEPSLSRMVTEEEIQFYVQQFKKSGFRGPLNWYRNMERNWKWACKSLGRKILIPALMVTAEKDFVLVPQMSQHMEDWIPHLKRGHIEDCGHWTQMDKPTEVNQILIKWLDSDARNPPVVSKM
UniProt P20042, whole entry, looked up: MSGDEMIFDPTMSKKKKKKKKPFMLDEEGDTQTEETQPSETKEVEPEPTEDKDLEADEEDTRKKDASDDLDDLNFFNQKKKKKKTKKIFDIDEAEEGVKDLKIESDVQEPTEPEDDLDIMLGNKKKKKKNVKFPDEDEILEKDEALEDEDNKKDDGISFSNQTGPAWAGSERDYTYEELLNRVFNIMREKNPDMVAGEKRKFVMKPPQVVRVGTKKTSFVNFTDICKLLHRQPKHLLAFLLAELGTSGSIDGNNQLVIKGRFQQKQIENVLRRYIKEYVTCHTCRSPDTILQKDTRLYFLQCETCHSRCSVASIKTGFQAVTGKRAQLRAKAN
UniProt O75821, whole entry, looked up: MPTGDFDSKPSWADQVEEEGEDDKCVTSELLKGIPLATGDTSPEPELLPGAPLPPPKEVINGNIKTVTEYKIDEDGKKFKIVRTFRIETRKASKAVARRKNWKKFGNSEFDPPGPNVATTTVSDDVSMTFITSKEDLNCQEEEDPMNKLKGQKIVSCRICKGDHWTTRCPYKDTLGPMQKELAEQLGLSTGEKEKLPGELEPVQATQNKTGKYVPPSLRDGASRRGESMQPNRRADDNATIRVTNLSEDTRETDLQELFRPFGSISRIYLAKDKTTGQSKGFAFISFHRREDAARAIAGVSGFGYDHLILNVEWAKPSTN
UniProt Q7L2H7, whole entry, looked up: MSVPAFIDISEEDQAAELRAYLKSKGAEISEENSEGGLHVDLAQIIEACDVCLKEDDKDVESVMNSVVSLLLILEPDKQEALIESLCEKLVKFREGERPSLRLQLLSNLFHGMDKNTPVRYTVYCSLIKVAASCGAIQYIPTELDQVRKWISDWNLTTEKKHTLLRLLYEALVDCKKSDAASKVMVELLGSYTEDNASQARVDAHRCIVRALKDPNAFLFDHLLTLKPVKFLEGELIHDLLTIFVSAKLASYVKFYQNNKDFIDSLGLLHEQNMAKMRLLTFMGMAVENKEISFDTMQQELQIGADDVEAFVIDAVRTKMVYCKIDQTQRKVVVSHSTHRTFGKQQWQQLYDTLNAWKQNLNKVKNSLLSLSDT
UniProt Q9NPA8: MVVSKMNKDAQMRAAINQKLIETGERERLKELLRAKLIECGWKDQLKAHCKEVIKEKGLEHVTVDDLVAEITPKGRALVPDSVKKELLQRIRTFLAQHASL

log2 fold change, inactive:
EPN1 (UniProt Q9Y6I3) 0.026
EMC3 (UniProt Q9P0I2) -0.034
EIF3K (UniProt Q9UBQ5) -0.026
EMC1 (UniProt Q8N766) -0.008
EMC10 (UniProt Q5UCC4) -0.001
ELP4 (UniProt Q96EB1) -0.012
EPB41L2 (UniProt O43491) -0.011
EIF2B4 (UniProt Q9UI10) 0.014
EPHX1 (UniProt P07099) 0.021
ERGIC2 (UniProt Q96RQ1) 0.131
ERBIN isoform 8 (UniProt Q96RT1) 0.051
EIF3A (UniProt Q14152) -0.031
ELP1 (UniProt O95163) -0.006
ELP5 isoform 4 (UniProt Q8TE02) -0.025
EMP3 (UniProt P54852) -0.046
ELOB (UniProt Q15370) 0.038
EIF2B5 (UniProt Q13144) -0.015
ELAC2 (UniProt Q9BQ52) 0.01
ERCC6L (UniProt Q2NKX8) -0.015
EPS15L1 isoform 2 (UniProt Q9UBC2) 0.02
EMC4 (UniProt Q5J8M3) -0.023
EIF3I (UniProt Q13347) -0.018
EIF3C (UniProt Q99613) -0.026
ELL (UniProt P55199) -0.125
EPHX2 (UniProt P34913) 0.005
ENTPD5 (UniProt O75356) -0.045
EIF2S2 (UniProt P20042) 0.005
EIF3J (UniProt O75822) 0.003
ENSA isoform 3 (UniProt O43768) 0.07
EIF3G (UniProt O75821) -0.013
ERCC2 (UniProt P18074) -0.022
EIF4G1 (UniProt Q04637) -0.019
EIF3M (UniProt Q7L2H7) 0.01
EPB41L1 (UniProt Q9H4G0) 0.02
ENY2 (UniProt Q9NPA8) 0.045

compound: Cc1ncc(-c2ccnc(Nc3ccc(S(C)(=O)=O)cc3)n2)n1C(C)C; experiment: as above
Summary of the method: as §1

log2 fold change, inactive:
EPN1 (UniProt Q9Y6I3) 0.009
EMC3 (UniProt Q9P0I2) 0.036
EIF3K (UniProt Q9UBQ5) 0.024
EMC1 (UniProt Q8N766) -0.005
EMC10 (UniProt Q5UCC4) 0.076
ELP4 (UniProt Q96EB1) 0
EPB41L2 (UniProt O43491) 0.01
EIF2B4 (UniProt Q9UI10) 0.033
EPHX1 (UniProt P07099) 0.005
ERGIC2 (UniProt Q96RQ1) 0.019
ERBIN isoform 8 (UniProt Q96RT1) -0.015
EIF3A (UniProt Q14152) -0.014
ELP1 (UniProt O95163) -0.004
ELP5 isoform 4 (UniProt Q8TE02) -0.032
EMP3 (UniProt P54852) 0.02
ELOB (UniProt Q15370) 0.026
EIF2B5 (UniProt Q13144) 0.008
ELAC2 (UniProt Q9BQ52) 0
ERCC6L (UniProt Q2NKX8) -0.019
EPS15L1 isoform 2 (UniProt Q9UBC2) 0.04
EMC4 (UniProt Q5J8M3) -0.011
EIF3I (UniProt Q13347) 0.013
EIF3C (UniProt Q99613) -0.008
ELL (UniProt P55199) 0.028
EPHX2 (UniProt P34913) 0.027
ENTPD5 (UniProt O75356) 0.022
EIF2S2 (UniProt P20042) 0.03
EIF3J (UniProt O75822) 0.022
ENSA isoform 3 (UniProt O43768) 0.013
EIF3G (UniProt O75821) -0.006
ERCC2 (UniProt P18074) 0.029
EIF4G1 (UniProt Q04637) 0.023
EIF3M (UniProt Q7L2H7) 0.033
EPB41L1 (UniProt Q9H4G0) 0.018
ENY2 (UniProt Q9NPA8) 0.007
